Data from patent US9394261B2, “Aryl amine substituted pyrimidine and quinazoline and their use as anticancer drugs” (National Yang-Ming University, priority 2012, dated 2016).
At least one structure is not confirmed: it was looked up by name or label, or the drawing left a doubt. Some results were stated once for a whole list of compounds, not compound by compound.

What was measured:
[1] = test system: SK-Hep-1 cell lines (a hepatocellular carcinoma (HCC) cell); experiment: MTT assay, growth inhibition of SK-Hep-1 cells; assay type: cell-based; conditions: 48 hours
Experimental: MTT assay was used to measure growth inhibition. […] MTT (3-(4,5-dimethylthiazol-2-yl)-2,5-diphenyl tetrazolium bromide) assay was performed as follow.
The effect of individual test compounds on cell viability was assessed by using the MTT in 6 replicates. Sk-Hep-1 cells were seeded and incubated in 96-well, flat-bottomed plates for 24 hours, and were exposed to various concentrations of test compounds dissolved in DMSO (final concentration, 0.1%) for 48 hours. Controls received DMSO vehicle at a concentration equal to that in drug-treated cells. The medium was removed, replaced by 200 μL of 0.5 mg/mL MTT in 10% fetal bovine serum containing DMEM (Dulbecco's Modified Eagle Medium), and cells were incubated in the carbon dioxide incubator at 37° C. for 2 hours. Supernatants were removed from the wells and the reduced MTT dye was solubilized in 100 μL/well DMSO. Absorbance at 570 nm was determined on a plate reader.
The SK-Hep1 cells were then analyzed with western blot assay and MTT assay.

CIP2A = experiment: western blot of CIP2A expression in PLC/PRF/5 cells; assay type: cell-based; conditions: 10 μM, 48 hours (FIG. 8)
Experimental: PLC/PRF/5 cells were exposed to compounds 88, 95 and 96 at various doses (5 and 10 μM) for 48 hours. Total lysates were subjected to CIP2A protein analysis by western blot. Actin was used as a loading control.

C#Cc1cccc(Nc2nc(Nc3ccc(Oc4ccccc4)cc3)nc3cc(OC)c(OC)cc23)c1 [Compound 19, N^4-(3-Ethynylphenyl)-6,7-dimethoxy-N^2-(4-phenoxyphenyl)quinazoline-2,4-diamine]
IC50 ([1]; listed as compound 19): < 10 µM

C#Cc1cccc(Nc2nc(Nc3cc(C)ccc3F)nc3cc(OC)c(OC)cc23)c1 [Compound 21, N^4-(3-Ethynylphenylyl)-N^2-(2-fluoro-5-methylphenyl)-6,7-dimethoxyquinazoline-2,4-diamine]
IC50 [1]: < 10 µM

C#Cc1cccc(Nc2nc(NCc3ccccc3)nc3cc(OC)c(OC)cc23)c1 [Compound 22, N^2-Benzyl-N^4-(3-ethynylphenyl)-6,7-dimethoxy quinazoline-2,4-diamine]
IC50 ([1]; listed as compound 22): < 10 µM

C#Cc1cccc(Nc2nc(Nc3cccc(Oc4ccc(C#N)cc4)c3)nc3cc(OC)c(OC)cc23)c1 [Compound 23, 4-(3-(4-(3-Ethynylphenylamino)-6,7-dimethoxyquinazolin-2-ylamino)phenoxy)benzonitrile]
IC50 ([1]; listed as compound 23): < 10 µM

C#Cc1cccc(Nc2nc(NCc3ccc(Cl)c(C(F)(F)F)c3)nc3cc(OC)c(OC)cc23)c1 [Compound 27, N^2-(4-Chloro-3-(trifluoromethyl)benzyl)-N^4-(3-ethynylphenyl)-6,7-dimethoxyquinazoline-2,4-diamine]
IC50 ([1]; listed as compound 27): < 10 µM

C#Cc1cccc(Nc2nc(NCc3cccc(OC(F)(F)F)c3)nc3cc(OC)c(OC)cc23)c1 [Compound 28, N^4-(3-Ethynylphenyl)-6,7-dimethoxy-N^2-(3-(trifluoromethoxy)benzyl)quinazoline-2,4-diamine]
IC50 ([1]; listed as compound 28): < 10 µM

C#Cc1cccc(Nc2nc(Nc3cccc(NS(=O)(=O)c4cccc(C(F)(F)F)c4)c3)nc3cc(OC)c(OC)cc23)c1 [Compound 31, N-(3-(4-(3-Ethynylphenylamino)-6,7-dimethoxyquinazolin-2-ylamino)phenyl)-3-(trifluoromethyl)benzenesulfonamide]
IC50 ([1]; listed as compound 31): < 10 µM

C#Cc1cccc(Nc2nc(Nc3cccc(NC(=O)c4ccccc4)c3)nc3cc(OC)c(OC)cc23)c1 [Compound 33, N-(3-(4-(3-ethynylphenylamino)-6,7-dimethoxyquinazolin-2-ylamino)phenyl)benzamide]
IC50 ([1]; listed as compound 33): < 10 µM

C#Cc1cccc(Nc2nc(Nc3ccc(Oc4ccc(Cl)cc4)cc3)nc3cc(OC)c(OC)cc23)c1 [Compound 96, N^2-(4-(4-chlorophenoxyl)phenyl)-N^4-(3-ethynylphenyl)-6,7-dimethoxyquinazoline-2,4-diamine]
inhibition of CIP2A expression (CIP2A): high degree of repression of CIP2A
